Source: patent US4782898A, “Determining residual oil saturation using carbon 14 labeled carbon dioxide” (priority 1986, dated 1988)
Where a name gives a salt, the structure may show the parent alone.

Assay: Applicable temperature range of acid (CO2) generators
Type: physicochemical
Conditions: best estimate of the applicable temperature range for each listed CO2 generator

SMILES	Temperature Range
CC(Cl)C(=O)O (stereo not shown) [2-Chloropropionic acid salt]	120 to 150 °F.
CC(Cl)CC(=O)O (stereo not shown) [3-Chlorobutyric acid salt]	80 to 110 °F.
O=C(O)CCCl [3-Chloropropionic acid salt]	100 to 130 °F.
O=C(O)C(Cl)Cl [DiChloro Acetic acid salt]	180 to 250 °F.
O=C(O)CBr [Mono Bromo Acetic acid salt]	140 to 170 °F.
O=C(O)CCl [Mono Chloro Acetic acid salt]	160 to 220 °F.
O=C(O)c1ccccc1Cl [Ortho Chlorobenzoic acid salt]	> 300 °F.
